Data on one substance can be found in article PMC6101293.

Chains of the proteins cited; added tags and fusions are not shown.
UniProt P07384: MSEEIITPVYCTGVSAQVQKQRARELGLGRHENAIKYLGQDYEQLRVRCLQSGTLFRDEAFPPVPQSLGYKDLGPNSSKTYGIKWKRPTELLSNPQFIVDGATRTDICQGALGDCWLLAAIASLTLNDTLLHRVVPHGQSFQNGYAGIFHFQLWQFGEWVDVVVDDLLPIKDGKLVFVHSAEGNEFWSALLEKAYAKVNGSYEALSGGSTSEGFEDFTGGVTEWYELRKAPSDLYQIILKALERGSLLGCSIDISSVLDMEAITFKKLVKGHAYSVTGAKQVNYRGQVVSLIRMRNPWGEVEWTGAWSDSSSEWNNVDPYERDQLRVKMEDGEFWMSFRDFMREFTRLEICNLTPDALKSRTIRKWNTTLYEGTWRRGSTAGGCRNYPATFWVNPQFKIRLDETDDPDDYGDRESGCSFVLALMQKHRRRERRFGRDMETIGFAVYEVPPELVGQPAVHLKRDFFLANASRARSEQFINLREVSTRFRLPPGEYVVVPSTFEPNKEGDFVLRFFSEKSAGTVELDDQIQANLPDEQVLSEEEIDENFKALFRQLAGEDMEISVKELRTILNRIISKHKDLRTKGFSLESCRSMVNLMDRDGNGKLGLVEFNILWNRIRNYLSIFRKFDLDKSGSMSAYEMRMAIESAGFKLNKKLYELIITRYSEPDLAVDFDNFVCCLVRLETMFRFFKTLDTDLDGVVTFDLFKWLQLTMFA
UniProt P21359: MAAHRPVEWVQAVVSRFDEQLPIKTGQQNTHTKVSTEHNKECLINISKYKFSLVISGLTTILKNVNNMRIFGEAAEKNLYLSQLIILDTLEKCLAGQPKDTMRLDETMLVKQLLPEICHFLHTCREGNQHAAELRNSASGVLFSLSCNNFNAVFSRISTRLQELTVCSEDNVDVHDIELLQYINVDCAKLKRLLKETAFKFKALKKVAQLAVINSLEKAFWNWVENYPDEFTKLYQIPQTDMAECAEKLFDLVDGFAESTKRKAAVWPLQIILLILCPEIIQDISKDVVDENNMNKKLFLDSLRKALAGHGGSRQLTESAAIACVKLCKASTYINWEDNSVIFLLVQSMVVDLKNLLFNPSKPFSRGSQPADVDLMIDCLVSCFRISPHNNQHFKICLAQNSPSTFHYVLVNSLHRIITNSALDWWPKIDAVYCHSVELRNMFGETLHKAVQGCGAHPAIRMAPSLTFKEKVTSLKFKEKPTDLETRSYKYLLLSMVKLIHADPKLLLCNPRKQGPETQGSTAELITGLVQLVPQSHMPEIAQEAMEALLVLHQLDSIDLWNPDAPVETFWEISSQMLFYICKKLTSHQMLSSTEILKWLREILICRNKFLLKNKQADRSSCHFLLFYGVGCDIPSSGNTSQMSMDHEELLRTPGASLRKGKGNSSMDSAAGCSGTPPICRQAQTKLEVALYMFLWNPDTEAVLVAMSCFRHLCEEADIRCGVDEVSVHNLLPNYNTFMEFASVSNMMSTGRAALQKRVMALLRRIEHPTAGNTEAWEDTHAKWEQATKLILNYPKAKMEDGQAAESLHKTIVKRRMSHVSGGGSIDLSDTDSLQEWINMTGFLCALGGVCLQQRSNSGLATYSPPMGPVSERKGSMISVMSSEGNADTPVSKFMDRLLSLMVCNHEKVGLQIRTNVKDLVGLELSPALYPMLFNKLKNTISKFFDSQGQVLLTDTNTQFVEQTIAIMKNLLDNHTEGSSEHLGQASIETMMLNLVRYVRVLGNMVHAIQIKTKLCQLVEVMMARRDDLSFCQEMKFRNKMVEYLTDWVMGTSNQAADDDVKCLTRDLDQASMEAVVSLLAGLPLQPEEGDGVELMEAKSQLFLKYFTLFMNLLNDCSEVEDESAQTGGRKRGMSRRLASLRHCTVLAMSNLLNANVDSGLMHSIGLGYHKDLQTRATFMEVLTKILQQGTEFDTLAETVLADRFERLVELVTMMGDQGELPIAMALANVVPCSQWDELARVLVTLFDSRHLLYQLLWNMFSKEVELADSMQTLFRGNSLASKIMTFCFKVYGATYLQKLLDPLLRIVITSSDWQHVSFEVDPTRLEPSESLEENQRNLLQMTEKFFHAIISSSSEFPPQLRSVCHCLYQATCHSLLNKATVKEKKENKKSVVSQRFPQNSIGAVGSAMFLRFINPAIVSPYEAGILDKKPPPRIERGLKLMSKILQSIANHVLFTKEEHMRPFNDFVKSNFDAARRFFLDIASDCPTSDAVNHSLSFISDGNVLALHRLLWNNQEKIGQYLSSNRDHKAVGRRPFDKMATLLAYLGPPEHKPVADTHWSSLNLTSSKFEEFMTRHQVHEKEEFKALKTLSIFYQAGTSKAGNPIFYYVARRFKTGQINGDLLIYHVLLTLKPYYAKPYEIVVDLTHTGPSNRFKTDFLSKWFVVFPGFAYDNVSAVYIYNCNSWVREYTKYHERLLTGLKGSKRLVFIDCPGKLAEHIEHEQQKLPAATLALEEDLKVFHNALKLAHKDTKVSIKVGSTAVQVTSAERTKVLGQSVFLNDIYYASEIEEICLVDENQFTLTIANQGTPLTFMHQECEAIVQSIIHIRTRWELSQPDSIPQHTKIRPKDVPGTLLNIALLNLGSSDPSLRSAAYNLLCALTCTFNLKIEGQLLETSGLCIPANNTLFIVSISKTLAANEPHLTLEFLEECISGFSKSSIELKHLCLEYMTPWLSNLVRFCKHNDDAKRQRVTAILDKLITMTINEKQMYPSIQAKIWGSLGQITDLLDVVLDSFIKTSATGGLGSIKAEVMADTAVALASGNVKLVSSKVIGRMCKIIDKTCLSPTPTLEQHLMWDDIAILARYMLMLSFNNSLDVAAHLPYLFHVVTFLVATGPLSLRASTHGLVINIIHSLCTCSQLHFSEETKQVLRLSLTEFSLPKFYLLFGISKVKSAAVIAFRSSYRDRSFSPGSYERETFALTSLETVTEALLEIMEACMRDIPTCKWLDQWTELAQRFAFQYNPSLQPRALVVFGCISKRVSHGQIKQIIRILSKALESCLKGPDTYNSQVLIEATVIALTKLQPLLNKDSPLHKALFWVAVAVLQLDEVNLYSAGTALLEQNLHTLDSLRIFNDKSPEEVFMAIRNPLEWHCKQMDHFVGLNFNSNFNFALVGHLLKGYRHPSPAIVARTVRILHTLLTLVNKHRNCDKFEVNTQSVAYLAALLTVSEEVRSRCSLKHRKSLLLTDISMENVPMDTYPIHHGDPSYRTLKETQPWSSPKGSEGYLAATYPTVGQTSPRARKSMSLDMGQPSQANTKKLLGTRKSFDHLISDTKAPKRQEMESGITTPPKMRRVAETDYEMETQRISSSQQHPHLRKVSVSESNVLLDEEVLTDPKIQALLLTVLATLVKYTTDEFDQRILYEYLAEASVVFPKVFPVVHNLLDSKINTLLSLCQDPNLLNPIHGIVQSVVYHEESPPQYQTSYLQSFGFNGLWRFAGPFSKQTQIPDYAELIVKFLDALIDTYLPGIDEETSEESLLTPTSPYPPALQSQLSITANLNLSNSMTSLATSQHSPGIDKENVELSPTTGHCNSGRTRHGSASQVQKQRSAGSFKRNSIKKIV

These are yes or no findings as the source states them, for the method shown. Binding seen in cells or lysates may run through a third protein. Some results given as binding are weak or reduced against the parent protein; the word gives no strength.

For the assay, the target named is Calpain1 (CAPN1), large catalytic (80 kDa) subunit, endogenous (human (endogenous in A375 and 74T)) (UniProt P07384). Nature of the assay: co-IP; CAPN1 immunoprecipitated with anti-CAPN1 (C0355, Sigma) from A375 cells stably overexpressing NF1, immunoblot with anti-NF1; control mouse IgG1. In general terms: A western blot detects proteins with antibodies after separation by electrophoresis.

In the case of “NF1 tagged with Flag-HA at the N-terminus (pHAGE-NF1), stably overexpressed (from UniProt P21359 1-2839)”, the binding result is reported as “binds”.
